{"source": "PubChem BioAssay AID504467", "about": "(National Center for Advancing Translational Sciences (NCATS), 2011)", "note": "The campaign covered roughly 330,000 compounds. About 7,700 (2.3%) were called active. The inconclusive results got no clear call from the source; some entries with a clear call stand among them for comparison. Calls come from the whole dose curve; as a rule, active = well fitted inhibition curve with a large enough effect; inconclusive = small, poorly fitted or top-dose-only effect, or effect the other way; inactive = flat fitted curve, though single readings scatter. Potencies of inconclusive entries are doubtful fits and often do not repeat. % is set by controls: 0 for no effect and ±100 for the full control effect; potency is the fitted concentration of half-maximal effect."}
{"test": "qHTS screen for small molecules that inhibit ELG1-dependent DNA repair in human embryonic kidney (HEK293T) cells expressing luciferase-tagged ELG1; note: nearly all actives have a fitted effect of over 55% in size", "conditions": "HEK293T ELG1-luciferase reporter, luminescence, 16 h, DNA damage induced by 5-fluorouridine; activity change, negative = inhibition: at 46.1 µM (top of the series)", "summary_of_the_method": "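DMSO vehicle served as the neutral condition. Each well held 2,000 cells given 5-fluorouridine plus compound; after 16 hr at 37 °C/5% CO2, ONE-Glo was added and luciferase measured 30 min later.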"}
{"smiles": "CCc1ccc(-c2nnn(CCC(=O)OC)n2)cc1", "Potency": "inconclusive: 14.6 µM [activator, partial curve]"}
{"smiles": "COCCn1c(Cc2ccccc2)nnc1SCC(=O)Nc1oc(C)c2c(C)n[nH]c(=O)c12", "activity change, negative = inhibition": "inactive: 15.6%"}
{"smiles": "CC1CCCC(C)N1/N=C/C=C/c1ccccc1[N+](=O)[O-]", "note": "(stereo not given)", "Potency": "inconclusive: 29.1 µM [activator, single point]"}
{"smiles": "NS(=O)(=O)c1ccccc1NC(=O)c1c(O)c2ccccc2[nH]c1=O", "Potency": "inconclusive: 8.2 µM [activator, partial curve]"}
{"smiles": "COc1cc(CN2CCCC(C(=O)N3CCc4ccccc4C3)C2)cc(OC)c1OC", "note": "(stereo not given)", "Potency": "inconclusive: 29.1 µM [inhibitor, single point]"}
{"smiles": "CN(C(=O)c1nn(C)c2c1CSc1ccccc1-2)c1ccc(F)cc1", "activity change, negative = inhibition": "inactive: 21.8%"}
{"smiles": "O=C(NN1C(=O)C2C3C=CC(O3)C2C1=O)c1cccc(O)c1", "note": "(stereo not given)", "activity change, negative = inhibition": "inactive: 17.9%"}
{"smiles": "CC1CCCN(S(=O)(=O)c2ccc(NC(=O)[C@@H]3CCCN3C(=O)c3cccs3)cc2)C1", "note": "(stereo not given in full)", "activity change, negative = inhibition": "inactive: 2.71%"}
{"smiles": "COc1ccc(Br)cc1/C=C/C(=O)c1ccc(NC(C)=O)cc1", "Potency": "active: 14.6 µM"}
{"smiles": "COc1ccc2nc(SCC(=O)Nc3ccccc3OC)[nH]c2c1", "activity change, negative = inhibition": "inactive: -7.04%"}
{"smiles": "C=C(C)c1cccc(C(C)(C)NC(=O)N2CCC(C(N)=O)CC2)c1", "activity change, negative = inhibition": "inactive: 1.1%"}
{"smiles": "COc1cccc(-c2cc(C(=O)O)[nH]n2)c1", "activity change, negative = inhibition": "inactive: 14.6%"}
{"smiles": "CCC1CCC(c2nnc(-c3ccc(Br)cc3)o2)CC1", "note": "(stereo not given)", "Potency": "inconclusive: 18.4 µM [activator, single point]"}
{"smiles": "O=C(Nc1nc(-c2ccccn2)cs1)C12CC3CC(CC(O)(C3)C1)C2", "Potency": "inconclusive: 4.61 µM [activator, full curve]"}
{"smiles": "COc1cccc(-c2nn(-c3ccccc3)cc2CN(C)Cc2c(C)nc3ccccn23)c1", "Potency": "inconclusive: 25.9 µM [inhibitor, single point]"}
{"smiles": "Cc1cccc(/C=N/NC(=O)NC2CCCCC2)c1", "Potency": "inconclusive: 29.1 µM [activator, single point]"}
{"smiles": "Cc1ccc(S(=O)(=O)Nc2cccc3ncccc23)cc1", "activity change, negative = inhibition": "inactive: -4.77%"}
{"smiles": "Cc1sc2ncnc(NCC3CCCO3)c2c1C", "note": "(stereo not given)", "Potency": "inconclusive: 3.55 µM [inhibitor, full curve]"}
{"smiles": "CCOc1ccc(NC(=O)c2sc3nc(N4CCOCC4)c4c(c3c2N)CC(C)(C)OC4)cc1", "Potency": "inconclusive: 1.16 µM [inhibitor, full curve]"}
{"smiles": "O=C1NC(Cc2c[nH]c3ccccc23)C(=O)N1Cc1ccccc1", "note": "(stereo not given)", "activity change, negative = inhibition": "inactive: 3.37%"}
{"smiles": "CN1CCN(C(=S)NC(=O)c2cccc([N+](=O)[O-])c2)CC1", "activity change, negative = inhibition": "inactive: -5.86%"}
{"smiles": "CCOC(=O)CNC(=O)c1nn(-c2ccc(OCC)cc2)c(=O)c2ccccc12", "Potency": "inconclusive: 25.9 µM [inhibitor, single point]"}
{"smiles": "Cc1ccc(COC(=O)c2cc(S(=O)(=O)N3CCCCC3)ccc2N2CCOCC2)cc1", "Potency": "inconclusive: 20.6 µM [inhibitor, partial curve, poor fit]"}
{"smiles": "CCN(C(=O)COC(=O)c1ccccc1OCc1ccc(Cl)cc1)C1CCS(=O)(=O)C1", "note": "(stereo not given)", "Potency": "inconclusive: 20.6 µM [inhibitor, partial curve]"}
{"smiles": "O=C(c1ccc(-n2cccn2)cc1)N1CCN(c2ncccc2C(F)(F)F)CC1", "Potency": "inconclusive: 20.6 µM [inhibitor, partial curve]"}
{"smiles": "O=C(Nc1ccccc1)C1CCCN(S(=O)(=O)c2ccc(-n3cnnn3)cc2)C1", "note": "(stereo not given)", "Potency": "inconclusive: 16.4 µM [inhibitor, partial curve, poor fit]"}
{"smiles": "CCOC(=O)c1c(C)[nH]c(O)c1C=Nc1ccccc1", "activity change, negative = inhibition": "inactive: -6.2%"}
{"smiles": "Cc1oc(-c2ccccc2F)nc1CN1CCC(C(=O)NC2CCCCCCC2)CC1", "activity change, negative = inhibition": "inactive: 4.59%"}
{"smiles": "CCCc1cc(=O)[nH]c(SCC(=O)Nc2sc(C(N)=O)c(C)c2C(=O)OCCOC)n1", "Potency": "inconclusive: 16.4 µM [inhibitor, single point]"}
{"smiles": "NS(=O)(=O)c1ccc(NC(=S)NCc2ccco2)cc1", "activity change, negative = inhibition": "inactive: 4.48%"}
{"smiles": "Cc1ccc(NC(=O)C(=O)c2c(-c3ccccc3)cc3ccccn23)cc1S(=O)(=O)N1CCOCC1", "Potency": "active: 9.2 µM"}
{"smiles": "CCOC(=O)c1cnc(-n2cc(C)cn2)nc1Nc1ccccc1OCC", "Potency": "inconclusive: 12.6 µM [inhibitor, partial curve, poor fit]"}
{"smiles": "CC(=O)N/C(=C\\c1ccc(C)o1)C(=O)NCc1ccccc1", "activity change, negative = inhibition": "inactive: -0.818%"}
{"smiles": "Cn1cc(/C=C2\\SC(=S)N(NC(=O)c3ccccc3Cl)C2=O)c2ccccc21", "activity change, negative = inhibition": "inactive: -5.49%"}
{"smiles": "CNC(=O)c1ccc(NC(=O)/C=C/c2cccc(F)c2)cc1", "Potency": "inconclusive: 29.1 µM [activator, single point]"}
{"smiles": "CC1=C(C(=O)OC(C)C)C(c2cn(-c3ccccc3)nc2-c2cccs2)NC(=O)N1", "note": "(stereo not given)", "Potency": "inconclusive: 32.6 µM [inhibitor, partial curve, poor fit]"}
{"smiles": "COc1ccccc1CNC(=O)c1cccc(S(=O)(=O)N2CCN(c3ccc(F)cc3)CC2)c1", "Potency": "inconclusive: 7.3 µM [inhibitor, partial curve, poor fit]"}
{"smiles": "CC1=CC(=O)C(C(C)C)=C/C1=C(\\c1cc(C(C)C)c(OP(=O)(O)O)cc1C)c1ccccc1C(=O)O", "Potency": "active: 18.3 µM"}
{"smiles": "Cc1cccn2c(=O)c(/C=C(\\C#N)C(=O)NC3CCS(=O)(=O)C3)c(N3CCC(C(N)=O)CC3)nc12", "note": "(stereo not given)", "activity change, negative = inhibition": "inactive: 22.4%"}
{"smiles": "COCCCNc1nc2c(-c3cccc(C(F)(F)F)c3)nnn2c2ccccc12", "activity change, negative = inhibition": "inactive: 10.1%"}
{"smiles": "CCn1c(C)c(C(C)=O)c(N2CCN(C(c3ccccc3)c3ccccc3)CC2)nc1=S", "Potency": "inconclusive: 16.4 µM [inhibitor, partial curve, poor fit]"}
{"smiles": "Cc1ccnc(N/C=C(/NC(=O)c2ccccc2)C(=O)N/N=C\\c2ccc(Cl)cc2)n1", "Potency": "inconclusive: 29.1 µM [inhibitor, single point]"}
{"smiles": "CCOC(=O)CNC(=S)N(Cc1ccccc1)Cc1ccccc1F", "Potency": "inconclusive: 7.3 µM [inhibitor, partial curve, poor fit]"}
{"smiles": "Brc1ccc(/C=N/Nc2ccccc2)cc1", "Potency": "inconclusive: 14.6 µM [activator, partial curve]"}
{"smiles": "Cn1c(N)c(C(=O)CSc2nnc(-c3c[nH]c4ccccc34)n2C2CC2)c(=O)[nH]c1=O", "Potency": "inconclusive: 16.4 µM [activator, single point]"}
{"smiles": "Cc1ccc(C(=O)ONc2ccc(N=NC(=O)c3ccccc3O)cc2)cc1", "Potency": "inconclusive: 18.4 µM [activator, partial curve]"}
{"smiles": "CCOc1ccc(CCNC(=O)C2CCN(c3nn4c(=O)cc(C)nc4s3)CC2)cc1", "activity change, negative = inhibition": "inactive: -10.7%"}
{"smiles": "O=C(COc1ccc(Br)cc1Cl)NC(=S)N1CCc2ccccc21", "Potency": "inconclusive: 29.1 µM [activator, single point]"}
{"smiles": "Cc1cccc(C(=O)NC2CC3CCCC(C2)N3C(=O)NC2CCCCC2)c1", "note": "(stereo not given)", "Potency": "inconclusive: 23.1 µM [inhibitor, partial curve, poor fit]"}
{"smiles": "Cc1cc2nc(C3CCN(C(=S)NCCCOC(C)C)CC3)[nH]c2cc1C", "Potency": "inconclusive: 16.4 µM [inhibitor, partial curve]"}
{"smiles": "COc1ccccc1/C=N/NC(=O)c1[nH]c(C)c(C(=O)N/N=C/c2ccccc2OC)c1C", "Potency": "inconclusive: 16.4 µM [inhibitor, single point]"}
{"smiles": "Cc1ccc(C)c(NC(=O)Cc2nc(CNCC(C)C)cs2)c1", "activity change, negative = inhibition": "inactive: -6.82%"}
{"smiles": "C=CCNC(=O)c1ccc(Cn2c(=S)[nH]c3cc4c(cc3c2=O)OCO4)cc1", "Potency": "inconclusive: 5.62 µM [activator, single point]"}
{"smiles": "S=c1[nH]nc([C@@H]2C[C@H]2c2ccccc2)n1-c1ccccc1", "activity change, negative = inhibition": "inactive: 4.44%"}
{"smiles": "CCn1cnnc1SCC(=O)Nc1ccccc1C(=O)NC1CC1", "activity change, negative = inhibition": "inactive: 9.97%"}
{"smiles": "CSc1ccccc1C(=O)Nc1ccc2c(c1)OCO2", "Potency": "inconclusive: 20.6 µM [activator, single point]"}
{"smiles": "COc1cccc2c1OCC(CN1CCN(Cc3ccccc3F)C(CCO)C1)=C2", "note": "(stereo not given)", "Potency": "inconclusive: 16.4 µM [inhibitor, partial curve]"}
{"smiles": "Cc1cc(NC(=O)c2cccc(S(=O)(=O)N3CC(c4ccccc4)CC3=O)c2)no1", "note": "(stereo not given)", "Potency": "inconclusive: 25.9 µM [inhibitor, partial curve]"}
{"smiles": "Cc1ccc(NC(=O)c2c(C(F)(F)F)nn(C)c2SCc2ccc(Cl)cc2)cc1C", "activity change, negative = inhibition": "inactive: 1.95%"}
{"smiles": "O=C(Cn1nnc2ccccc2c1=O)Nc1cccc(S(=O)(=O)N2CCOCC2)c1", "Potency": "inconclusive: 29.1 µM [inhibitor, single point]"}
{"smiles": "COC(=O)N/N=C(\\C)c1cccc(C(F)(F)F)c1", "activity change, negative = inhibition": "inactive: 0%"}
{"smiles": "O=C(Nc1ccccc1N1CCN(c2ccccc2)CC1)c1cccc(F)c1", "Potency": "inconclusive: 29.1 µM [inhibitor, single point]"}
{"smiles": "CCCCCc1cc(=O)oc2c(C(CCN3CCCCC3)c3ccc(OC)cc3)c(OC)cc(OC)c12", "note": "(stereo not given)", "activity change, negative = inhibition": "inactive: -10.9%"}
{"smiles": "O=c1c2ccccc2nnn1COc1ccc(F)cc1Cl", "Potency": "inconclusive: 20.6 µM [activator, partial curve]"}
{"smiles": "COc1ccccc1-n1cnnc1SCC(=O)Nc1ccccc1", "Potency": "inconclusive: 10.3 µM [activator, partial curve, poor fit]"}
{"smiles": "COc1cccc(OC)c1C(=O)NC(=O)Nc1c(C)cccc1C", "activity change, negative = inhibition": "inactive: -2.24%"}
{"smiles": "CCN(c1cccc(C)c1)S(=O)(=O)c1ccc(-c2ccc(=O)[nH]n2)o1", "Potency": "inconclusive: 18.3 µM [activator, single point]"}
{"smiles": "COc1ccc(-c2cc(-c3ccccc3)n[nH]2)c(O)c1", "Potency": "inconclusive: 3.66 µM [activator, full curve]"}
{"smiles": "Cc1ccc(S(=O)(=O)N(C)c2ccccc2C(=O)Nc2ccc3c(c2)OCCO3)cc1", "Potency": "inconclusive: 25.9 µM [inhibitor, single point]"}
{"smiles": "CCn1c(SCC(=O)O)nnc1-c1cc2c(C)nn(-c3ccccc3)c2s1", "Potency": "inconclusive: 3.26 µM [inhibitor, partial curve, poor fit]"}
